This experiment relates to HepG2 cells. Kind of experiment: Cell viability assay (CellTiter Glo). It counts as cell-based. To be noted: 72 h. As for the experimental part: Cell viability assay. To assess the cell viability, which indicates the toxicity of the novel compounds, a total of 3,000 HepG2 cells were seeded into a 384-well plate. The compounds were then dispensed onto the cell plate using a Tecan D300e digital dispenser. Following compound addition, 35 μL CellTiter Glo reagent was added to all wells of the assay plate, and the plate was mixed for 30 sec on an or bital shaker to lyse cells. Subsequently, the plate was incubated at room temperature for 10 minutes. The luminescence signal was measured using a 384-well plate reader (EnVision). The obtained data were analyzed using XL-fit software (ID Business Solutions Ltd., Software version: XL fit 5. 5. 0. 5). The percentage of inhibition was calculated using the […]
Inhibition (%) = (1-Sample / ZPE) ×100
Sample represents the test compound's luminesc e nce signal, and ZPE represents the luminescence signal f r om the zer o-percent enzyme control.

pIC50: −log10 of the molar value.

Regarding `CN[C@@H]1C[C@H]2O[C@@](C)([C@@H]1OC)n1c3ccccc3c3c4c(c5c6ccccc6n2c5c31)C(=O)NC4` [Staurosporine, reference compound], the “Bottom (%) of cell viability inhibition curve” value is 1.13% and the “Top (%) of cell viability inhibition curve” value amounted to 71.33%. The negative logarithm of the IC50 (pIC50) (Homo sapiens, read-out: cell viability Absolute IC50) is 7.10.

For the origin of these results see publication PMC12067444, “Synthesis and Pharmacological Characterization of Novel Peripheral Cannabinoid-1 Receptor Blockers Based on a Tricyclic Scaffold” (Journal of Medicinal Chemistry, 2025).
